Experimental data as given in US20190248902A1.
No constants are given. Whether binding was seen depends on the method and setting. Some entries that bind do so weakly or less than the wild type.

Protein sequences, listed by entry. Tags and fused reporters are not part of them. Lines headed by an entry give the natural chain unless they say otherwise; changes in a name come on top.
UniProt P07306: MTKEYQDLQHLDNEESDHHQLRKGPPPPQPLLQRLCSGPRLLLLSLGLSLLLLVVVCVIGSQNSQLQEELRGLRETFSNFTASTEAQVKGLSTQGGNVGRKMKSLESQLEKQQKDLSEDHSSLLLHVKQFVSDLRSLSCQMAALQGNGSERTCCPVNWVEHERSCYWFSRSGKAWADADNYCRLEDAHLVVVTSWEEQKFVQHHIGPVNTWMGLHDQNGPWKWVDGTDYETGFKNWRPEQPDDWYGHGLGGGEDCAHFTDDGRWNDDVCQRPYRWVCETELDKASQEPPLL

Molecular target: ASGR-1 on HEPG2 Cells (human) (UniProt P07306)
Test: FACS or high content imaging on HepG2 cells; Y = signal at least 2x irrelevant IgG

- binding: binds
B1: 72G9 (antibody, V domains shown)
VH: EVQLVESGGGLVKPGGSLRLSCAASGFTFSSYSMNWVRQAPGKGLEWVSSISGSSSYIYYADSVKGRFTISRDNAKNSLYLQMNSLRAEDTAVYFCARGGSRGFDPWGQGTLVTVSS
VL: DIQMTQSPSSLSASVGDRVTITCRASQSITSYLNWYQQKPGKAPKLLIYTASSLQSGVPSRFSGSGSGTDFTLTISSLQPEDFATYYCQQSHSFPFTFGPGTKVDIK
